# In US12679878B2, “CRF2 receptor agonists and their use in therapy” (SANOFI, priority 2020, dated 2026):
# For some of these results: Part of at least one peptide drawing is inferred or uncertain, most often the ends. For some of these results: At least one structure is not confirmed: it was looked up by name or label, or the drawing left a doubt. Starred links: 1 amine or outer side, 2 acyl side, 3 side chain; linkers in the order of their positions; H or OH if unused. Non-standard residues stand in square brackets, D forms with d. Residues, ends and D or L forms follow the SMILES beside them. Groups on a side chain read outwards from the residue. *: point of attachment. C20 diacid = O=C(O)CCCCCCCCCCCCCCCCCCC(=O)*; C18 diacid = O=C(O)CCCCCCCCCCCCCCCCC(=O)*; γGlu = O=C(O)[C@H](CCC(=O)[*:2])N[*:1]; Palmitoyl = CCCCCCCCCCCCCCCC(=O)*; AEEA = NCCOCCOCC(=O)O; Aib = CC(C)(N)C(=O)O
# How the values were obtained:
# [1] = target: T1, human CRF2α receptor (Homo sapiens, UniProt Q13324); assay: cAMP agonism at human CRF2 α receptor in TeloHEAC cells (Example 7); format: cell-based; settings: cAMP HTRF, TeloHEAC cells stably expressing human CRF2 α
# T1 construct: expressed in transfected cells; host or cells: TeloHEAC
# T1 sequence (Q13324 1-411): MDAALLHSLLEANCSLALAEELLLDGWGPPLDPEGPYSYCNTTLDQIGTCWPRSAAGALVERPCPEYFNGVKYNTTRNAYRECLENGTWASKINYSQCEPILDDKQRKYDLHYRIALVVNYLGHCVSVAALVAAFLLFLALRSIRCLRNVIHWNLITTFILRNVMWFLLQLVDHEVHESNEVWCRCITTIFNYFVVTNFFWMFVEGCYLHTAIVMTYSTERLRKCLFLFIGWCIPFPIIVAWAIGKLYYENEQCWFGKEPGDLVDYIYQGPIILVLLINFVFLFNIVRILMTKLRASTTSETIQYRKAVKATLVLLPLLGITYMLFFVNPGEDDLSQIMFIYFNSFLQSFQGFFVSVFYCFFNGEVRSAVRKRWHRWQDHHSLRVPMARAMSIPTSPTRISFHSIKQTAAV
# Method: Agonism of compounds for human corticotropin-releasing factor 2α (CRF2 α receptor) was determined by functional assays measuring CAMP response of a TeloHEAC cell line stably expressing human CRF2 α receptor.
# Cells were grown in a T175 culture flask placed at 37° C. to near confluence in medium (DMEM/10% FBS) and collected in 2 ml vials in cell culture medium containing 10% DMSO in a concentration of 10-50 million cells/ml. Each vial contained 1.8 ml cells. The vials were slowly frozen to −80° C. in isopropanol and then transferred in liquid nitrogen for storage. Prior to use, frozen cells were thawed quickly at 37° C. and washed (5 min at 900 rpm) with 20 ml cell buffer (1×HBSS; 20 mM HEPES; 0% or 0.1% HSA). Cells were resuspended in assay buffer (cell buffer plus 2 mM IBMX) and adjusted to a cell density of 1 million cells/ml. For measurement, 5 μl cells (final […]) and 5 μL of test compound were added to a 384-well plate, followed by incubation for 30 minutes at room temperature.
# The CAMP content of cells was determined using a kit from Cisbio Corp. (cat. no. 62AM4PEC) based on HTRF (Homogenous Time Resolved Fluorescence). After addition of HTRF reagents diluted in lysis buffer (kit components), the plates were incubated for 1 h, followed by measurement of the fluorescence ratio at 665/620 nm. The percent activity value (E %) was calculated by setting 1000 nM of urocortin 2 (UCN2) as 100%. The in vitro potency of the compounds was quantified by determining the concentrations that caused 50% activation of maximal response (EC50).
# [2] = target: T1, human CRF2α receptor; assay: cAMP agonism at human CRF2α receptor in TeloHEAC cells, FA modified peptides (Example 19.9); format: cell-based; settings: 0% HSA, relative to urocortin 2
# Method: Agonism of compounds for human corticotropin-releasing factor 2α (CRF2α receptor) was determined by a functional assay measuring cAMP modulation upon treatment of TeloHEAC cells stably expressing human CRF2α receptor.
# Compounds were dissolved at 0.5 mM in 100% DMSO and serially diluted (1:2) in 100% DMSO for 16 dilutions. 20 nL of each dilution was then transferred to 384-well assay plate using an acoustic droplet ejection instrument. 5 μL of compound buffer (1×HBSS; 20 mM HEPES, 2 mM IBMX, 0% or 0.2% HSA) were then added to each well.
# Prior to use, frozen cells were thawed quickly at 37° C. and washed (5 min at 900 rpm) with 20 mL cell buffer (1×HBSS; 20 mM HEPES). Cells were resuspended in cell buffer and adjusted to a cell density of 800.000 cells/ml.
# 5 μL cells (final dell density: 4000 cells/well) were dispensed in the compound-containing 384-well assay plate and incubated for 30 minutes 37° C.
# The CAMP level in treated cells was determined using the Cisbio 62AM4PEC kit according to manufacturer's instruction. Finally, plates were incubated for 1 h at room temperature before measuring the fluorescence ratio between 665/620 nm.
# The percent activity value (E %) was calculated by setting 100 nM of urocortin 2 (UCN2) as 100%. […]
# [3] = 0% HSA, read-out: EC50 [nM], 0% HSA
# [4] = 0.1% HSA, read-out: EC50 [nM], 0.1% HSA
SMILES,"EC50 [1, 3] [nM]","EC50 [1, 4] [nM]",EC50 [2] [nM]
CC[C@H](C)[C@H](N)C(=O)N[C@H](C(=O)N[C@@H](CC(C)C)C(=O)N[C@@H](CO)C(=O)N[C@@H](CC(C)C)C(=O)N[C@@H](CC(=O)O)C(=O)N[C@H](C(=O)N1CCC[C@H]1C(=O)N[C@H](C(=O)N[C@@H](CCCCN)C(=O)N[C@@H](CC(C)C)C(=O)N[C@@H](CCCCNC(=O)COCCOCCNC(=O)COCCOCCNC(=O)CC[C@H](NC(=O)CC[C@H](NC(=O)CCCCCCCCCCCCCCCCCCC(=O)O)C(=O)O)C(=O)O)C(=O)N[C@@H](CCC(N)=O)C(=O)N[C@H](C(=O)N[C@@H](CC(C)C)C(=O)N[C@@H](CC(C)C)C(=O)N[C@@H](CCCCN)C(=O)N[C@@H](CCC(N)=O)C(=O)N[C@@H](CCC(=O)O)C(=O)N[C@@H](CCCNC(=N)N)C(=O)N[C@@H](CCC(N)=O)C(=O)N[C@@H](CCCCN)C(=O)N[C@@H](CCCCN)C(=O)N[C@@H](CCC(N)=O)C(=O)N[C@@H](CCCNC(=N)N)C(=O)N[C@@H](CCC(N)=O)C(=O)N[C@@H](CCC(N)=O)C(=O)N[C@@H](C)C(=O)N[C@@H](CCC(=O)O)C(=O)N[C@H](C(=O)N[C@@H](CC(N)=O)C(=O)N[C@@H](CCCCN)C(=O)N[C@@H](CCC(N)=O)C(=O)N[C@H](C(=O)N[C@@H](CC(C)C)C(=O)N[C@@H](C)C(=O)N[C@@H](CCC(N)=O)C(=O)N[C@H](C(N)=O)C(C)C)[C@@H](C)CC)[C@@H](C)O)[C@@H](C)CC)[C@@H](C)CC)C(C)C)C(C)C [compound 113] (H-IVLSLDVPIKLK([AEEA-AEEA-γGlu-γGlu-C20 diacid])QILLKQERQKKQRQQAETNKQILAQV-NH2),0.1,11.9,
CCCCCCCCCCCCCCCC(=O)N[C@@H](CCC(=O)NCCOCCOCC(=O)NCCOCCOCC(=O)NCCCC[C@H](NC(=O)[C@H](CC(C)C)NC(=O)CNC(=O)[C@@H](NC(=O)[C@@H]1CCCN1C(=O)[C@H](NC(=O)[C@H](CC(=O)O)NC(=O)[C@H](CC(C)C)NC(=O)[C@H](CO)NC(=O)[C@H](CC(C)C)NC(=O)[C@@H](NC(=O)[C@@H](N)[C@@H](C)CC)C(C)C)C(C)C)[C@@H](C)CC)C(=O)N[C@@H](CCC(N)=O)C(=O)N[C@H](C(=O)N[C@@H](CC(C)C)C(=O)N[C@@H](CC(C)C)C(=O)N[C@@H](CCCCN)C(=O)N[C@@H](CCC(N)=O)C(=O)N[C@@H](CCC(=O)O)C(=O)N[C@@H](CCCNC(=N)N)C(=O)N[C@@H](CCC(N)=O)C(=O)N[C@@H](CCCCN)C(=O)N[C@@H](CCCCN)C(=O)NC(C)(C)C(=O)N[C@@H](CCCNC(=N)N)C(=O)N[C@@H](CCC(=O)O)C(=O)N[C@@H](CCC(N)=O)C(=O)N[C@@H](C)C(=O)N[C@@H](CCC(=O)O)C(=O)N[C@H](C(=O)N[C@@H](CC(N)=O)C(=O)N[C@@H](CCCCN)C(=O)N[C@@H](CCC(N)=O)C(=O)N[C@H](C(=O)N[C@@H](CC(C)C)C(=O)N[C@@H](C)C(=O)N[C@@H](CCC(N)=O)C(=O)N[C@H](C(N)=O)C(C)C)[C@@H](C)CC)[C@@H](C)O)[C@@H](C)CC)C(=O)O [compound 216] (H-IVLSLD[dV]PIGLK([AEEA-AEEA-γGlu-Palmitoyl])QILLKQERQKK[Aib]REQAETNKQILAQV-NH2; N-terminus assumed),,,0.19
CC[C@H](C)[C@H](N)C(=O)N[C@H](C(=O)N[C@@H](CC(C)C)C(=O)N[C@@H](CO)C(=O)N[C@@H](CC(C)C)C(=O)N[C@@H](CC(=O)O)C(=O)N[C@@H](C(=O)N1CCC[C@H]1C(=O)N[C@H](C(=O)N[C@@H](Cc1c[nH]cn1)C(=O)N[C@@H](CC(C)C)C(=O)N[C@@H](CCCCNC(=O)COCCOCCNC(=O)COCCOCCNC(=O)CC[C@H](NC(=O)CCCCCCCCCCCCCCCCC(=O)O)C(=O)O)C(=O)N[C@@H](CCC(N)=O)C(=O)N[C@H](C(=O)N[C@@H](CC(C)C)C(=O)N[C@@H](CC(C)C)C(=O)N[C@@H](CCC(=O)O)C(=O)N[C@@H](CCC(N)=O)C(=O)N[C@@H](CCC(=O)O)C(=O)N[C@@H](CCCNC(=N)N)C(=O)N[C@@H](CCC(N)=O)C(=O)N[C@@H](CCCCN)C(=O)NC(C)(C)C(=O)N[C@@H](CCC(N)=O)C(=O)N[C@@H](CCCNC(=N)N)C(=O)N[C@@H](CCC(=O)O)C(=O)N[C@@H](CCC(N)=O)C(=O)N[C@@H](C)C(=O)N[C@@H](CCC(=O)O)C(=O)N[C@@H](CCCCN)C(=O)N[C@@H](CC(N)=O)C(=O)N[C@@H](CCCCN)C(=O)N[C@@H](CCC(N)=O)C(=O)N[C@H](C(=O)N[C@@H](CC(C)C)C(=O)N[C@@H](CCC(=O)O)C(=O)N[C@@H](CCC(N)=O)C(=O)N[C@H](C(N)=O)C(C)C)[C@@H](C)CC)[C@@H](C)CC)[C@@H](C)CC)C(C)C)C(C)C [compound 163] (H-IVLSLD[dV]PIHLK([AEEA-AEEA-γGlu-C18 diacid])QILLEQERQK[Aib]QREQAEKNKQILEQV-NH2; N-terminus assumed),0.24,3.91,
CC[C@H](C)[C@H](N)C(=O)N[C@H](C(=O)N[C@@H](CC(C)C)C(=O)N[C@@H](CO)C(=O)N[C@@H](CC(C)C)C(=O)N[C@@H](CC(=O)O)C(=O)N[C@H](C(=O)N1CCC[C@H]1C(=O)N[C@H](C(=O)N[C@@H](CCCCN)C(=O)N[C@@H](CC(C)C)C(=O)N[C@@H](CCCCNC(=O)COCCOCCNC(=O)COCCOCCNC(=O)CC[C@H](NC(=O)CC[C@H](NC(=O)CCCCCCCCCCCCCCCCCCC(=O)O)C(=O)O)C(=O)O)C(=O)N[C@@H](CCC(N)=O)C(=O)N[C@H](C(=O)N[C@@H](CC(C)C)C(=O)N[C@@H](CC(C)C)C(=O)N[C@@H](CCC(=O)O)C(=O)N[C@@H](CCC(N)=O)C(=O)N[C@@H](C)C(=O)N[C@@H](CCCNC(=N)N)C(=O)N[C@@H](CCC(N)=O)C(=O)N[C@@H](CCCCN)C(=O)NC(C)(C)C(=O)N[C@@H](CCC(N)=O)C(=O)N[C@@H](CCCNC(=N)N)C(=O)N[C@@H](C)C(=O)N[C@@H](CCC(N)=O)C(=O)N[C@@H](C)C(=O)N[C@@H](CCC(=O)O)C(=O)N[C@H](C(=O)N[C@@H](CC(N)=O)C(=O)N[C@@H](CCCCN)C(=O)N[C@@H](CCCNC(=N)N)C(=O)N[C@H](C(=O)N[C@@H](CC(C)C)C(=O)N[C@@H](CCC(=O)O)C(=O)N[C@@H](CCCNC(=N)N)C(=O)N[C@H](C(N)=O)C(C)C)[C@@H](C)CC)[C@@H](C)O)[C@@H](C)CC)[C@@H](C)CC)C(C)C)C(C)C [compound 114] (H-IVLSLDVPIKLK([AEEA-AEEA-γGlu-γGlu-C20 diacid])QILLEQARQK[Aib]QRAQAETNKRILERV-NH2),0.16,12.4,
